Laboratory results published in patent publication US20070117743A1 (priority 2003, published 2007).

Assay: general procedure: Fmoc solid-phase peptide synthesis; chlorotrityl chloride-polystyrene resin, loading 0.5 mmol/g; DIPCDI-HOBt
[1] = whole synthesis, analytical HPLC, UV detection at 215 or 220 nm

Row | Substance | crude yield (whole synthesis) [% yield] | isolated yield (whole synthesis) [% yield] | crude HPLC purity [1] [%] | final HPLC purity [1] [%] | step yield (late stage modification step) [%]
1 | (4S)-MeHex-D-Val-Thr-Val-D-Val-D-Pro-Orn-D-allo-Ile-cyclo(D-allo-Thr-D-allo-Ile-D-Val-Phe-ZDhb-Val) | 77 | 26 | >95 | 92.3 | 
2 | [Orn(N^δTfa)^8,Thr(OTfa)^12, 4(S)MeHex^14]-Kahalalide F |  |  |  |  | 20
